PMC7105484, “Crystal structures of REF6 and its complex with DNA reveal diverse recognition mechanisms” (Cell Discovery, 2020)
pKd: −log10 of the molar value. For some assays here: A weaker result is weaker than the reference pair of the same experiment. Where a protein sequence is shown, tags need not be part of it. For some assays here: Construct, isoform or probe ends are uncertain for at least one entry.

Tests used:
[1] = molecular target: T1, REF6 ZnF1-4 WT (Arabidopsis thaliana) (UniProt Q9STM3); assay: EMSA; conditions: methylcytosine at position 9 of strand 2 (9'C); EMSA: 30 uM protein, 10 uM dsDNA, 20 mM Tris pH 8.0, 100 mM NaCl, 2.5 mM MgCl2, 0.1% CA-630, 10% glycerol, 1 uM ZnSO4, 1 mM DTT, 4 C; recombinant protein; residues 1223-1360; label: FAM in MST
T1 sequence (looked up): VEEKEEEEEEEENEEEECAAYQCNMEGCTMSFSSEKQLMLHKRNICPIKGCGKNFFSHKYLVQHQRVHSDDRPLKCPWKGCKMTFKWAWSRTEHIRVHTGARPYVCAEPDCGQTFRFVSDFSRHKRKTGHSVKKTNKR

[2] = molecular target: T1, REF6 ZnF1-4 WT (Arabidopsis thaliana); assay: MST; conditions: MST: 20 mM HEPES pH 7.3, 150 mM NaCl, 0.2 mM TCEP, 0.5% CA-630, 25 C; recombinant protein; residues 1223-1360; label: FAM

Sequence | binding result [1] | pKd [2]
CTTTCTCTGTTTTGTC / GGACAAAACAGAGAAA [m5-m9'C] | binds more weakly | 
TTCTCTGTTT (double strand) [NAC004 10-bp] |  | 3.32
